# No constants are given. Whether binding was seen depends on the method and setting. Some results given as binding are weak or reduced against the parent protein; the word gives no strength.
# B1: VSIG3-mCherry expressed in NALM6 cells (ligand, UniProt Q5DX21 23-431)
# chain: LEVSESPGSIQVARGQPAVLPCTFTTSAALINLNVIWMVTPLSNANQPEQVILYQGGQMFDGAPRFHGRVGFTGTMPATNVSIFINNTQLSDTGTYQCLVNNLPDIGGRNIGVTGLTVLVPPSAPHCQIQGSQDIGSDVILLCSSEEGIPRPTYLWEKLDNTLKLPPTATQDQVQGTVTIRNISALSSGLYQCVASNAIGTSTCLLDLQVISPQPRNIGLIAGAIGTGAVIIIFCIALILGAFFYWRSKNKEEEEEEIPNEIREDDLPPKCSSAKAFHTEISSSDNNTLTSSNAYNSRYWSNNPKVHRNTESVSHFSDLGQSFSFHSGNANIPSIYANGTHLVPGQHKTLVVTANRGSSPQVMSRSNGSVSRKPRPPHTHSYTISHATLERIGAVPVMVPAQSRAGSLV
# Biological target: VSIG3-mCherry expressed in NALM6 cells (human) (UniProt Q5DX21)
# Assay: cell aggregation assay
binder,measurement,value
B1,binding,binds

# Source: publication doi:10.1101/2024.08.02.606340
